# Reference: PubChem BioAssay AID1259308 (NCATS, 2017)
# Test: 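Knock-downs that increase output of a recombinant reporter protein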 (primary screen)
# Cells: human HEK293 embryonic kidney cells stably expressing firefly luciferase (HEK-CMV-Luc2-Hygro)
# Reagents: single siRNA against human genes, 0.8 pmol siRNA per well
# Timing: 72 h
# Read-out: 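Reporter luminescence and viable-cell signal on separate replicate plates, given as percent of non-targeting control and median/MAD z-scores, plus per-cell luciferase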
# Scale: total luciferase, z-score and total luciferase, % of control: higher = more reporter protein produced; luciferase per cell, z-score: higher = more reporter output per viable cell; viable cells, % of control: higher = more viable cells
# Active means: 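Active when the median/MAD z-score for overall luciferase is greater than 3; a gene was taken forward for validation with new siRNAs if at least two of its three siRNAs passed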
# Meaning of the calls: active = raised luciferase; inactive = no rise
# Shown is an unselected part of about 59,000 deposited reagents. About 1,510 of them (2.6%) count as active. 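Calls use total luciferase alone and ignore viability, so some active siRNAs may act by altering cell number.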 Unmarked entries are inactive.
target gene,PubChem SID,"total luciferase, z-score","total luciferase, % of control","luciferase per cell, z-score","viable cells, % of control"
ATP9A,SID160725098,-0.22,77.5,-0.0165,87
ATP9A,SID160725107,-0.406,73.8,-0.152,85.9
ATP9A,SID160725109,0.712,96,0.851,85.8
PDLIM5,SID160728851,-0.978,62.4,-0.0169,70.1
PDLIM5,SID160728852,0.452,90.9,0.686,84.8
PDLIM5,SID160728853,-0.0356,81.2,-0.202,95.7
PHKG1,SID160714261,-0.73,67.4,-0.969,97.1
PHKG1,SID160714263,-0.331,75.3,-1.01,110
PHKG1,SID160731412,0.0764,83.4,-0.342,102
HBA1,SID160723835,-0.975,62.5,-0.432,78.2
HBA1,SID160723836,-0.0984,79.9,-0.119,92.2
HBA1,SID160723837,-2.04,41.3,-2.3,84.6
NDST4,SID160747817,2.22,126,1.54,93.9
NDST4,SID160747818,0.424,90.3,-0.0923,103
NDST4,SID160747819,0.051,82.9,0.162,88.8
TCP11L1,SID160743602,0.175,85.4,-0.114,98.3
TCP11L1,SID160743603,-0.614,69.7,-0.849,97.4
TCP11L1,SID160743604,-0.126,79.4,-0.0506,89.9
FSTL4,SID160735459,0.914,100,1.22,81.1
FSTL4,SID160735460,1.04,103,0.271,107
FSTL4,SID160735461,-0.257,76.8,0.91,67.5
GCC1,SID160748908,0.887,99.5,0.251,104
GCC1,SID160748909,0.48,91.4,-0.1,105
GCC1,SID160748910,-0.833,65.3,1.06,55.2
GPR171,SID160739275,-0.38,74.3,0.345,75.9
GPR171,SID160739276,-1.52,51.7,-1.2,79.1
GPR171,SID160739277,0.36,89,0.251,93.1
SLC2A3,SID160716811,-0.731,67.3,0.133,72.7
SLC2A3,SID160716812,2.35,129,1.23,104
SLC2A3,SID160716813,-0.572,70.5,-0.932,101
HECTD1,SID160737071,-0.598,70,-0.809,96.8
HECTD1,SID160737072,-0.991,62.2,-1.57,105
HECTD1,SID160737073,-0.323,75.5,-0.633,99.6

Look-ups from the entries so far:
For “luciferase per cell, z-score”, SLC2A3 [SID160716811] reads 0.133
GCC1 [SID160748910], viable cells, % of control → 55.2
For “viable cells, % of control”, PDLIM5 [SID160728852] shows 84.8
ATP9A [SID160725098], luciferase per cell, z-score = -0.0165
Result of SLC2A3 [SID160716813] under “viable cells, % of control”: 101
GPR171 [SID160739275], luciferase per cell, z-score → 0.345

Additional reagents follow.
target gene,PubChem SID,"total luciferase, z-score","total luciferase, % of control","luciferase per cell, z-score","viable cells, % of control"
SHB,SID160716681,1.65,115,0.764,105
SHB,SID160716682,0.0524,82.9,0.187,88.2
SHB,SID160716683,-0.055,80.8,-0.332,98.5
METTL25,SID160735079,2.03,122,1.09,103
METTL25,SID160751865,-0.66,68.8,-1.23,106
METTL25,SID160751866,0.39,89.6,-0.209,106
C1QTNF2,SID160755085,-0.0164,81.6,0.985,70.3
C1QTNF2,SID160755086,0.967,101,0.587,96.8
C1QTNF2,SID160755087,-2.09,40.2,-2.78,93.5
RFX8,SID160733223,-1.27,56.6,-1.82,102
RFX8,SID160733224,-2.31,36,-2.45,76.8
RFX8,SID160766063,1.25,107,0.761,97.7
RFX8,SID160774039,0.365,89.1,-0.109,103
RFX8,SID160774040,-0.584,70.3,-0.355,86.2
RFX8,SID160774041,0.257,87,1.04,73.8
FNIP1,SID160754667,0.0336,82.6,0.804,74.6
FNIP1,SID160754668,-0.4,73.9,-0.44,92.7
FNIP1,SID160754669,-1.22,57.5,-1.57,97.2
TUFT1,SID160718458,-0.0422,81,-0.167,94.6
TUFT1,SID160718460,-0.843,65.1,-0.62,85.7
TUFT1,SID160734395,-0.752,66.9,-1.23,103
CRTAP,SID160728565,0.449,90.8,0.372,92
CRTAP,SID160728567,-1.46,52.8,-0.966,76
CRTAP,SID160728568,-1.26,56.8,-1.36,90.8
